These results are taken from PubChem BioAssay AID1508600 (Functional Genomics Laboratory (NCATS/FGL), 2020).

Screen size: about 53,000 sequences; about 3,700 (7%) were called active.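 The calls were made as follows: active = gene knockdowns whose robust z-score for IL-1 alpha signal is at least 2 or at most -2, so actives lie on both sides; inactive = the rest.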 Some of the results follow.

The experiment is described as follows: Components of the Cytosolic LPS Sensing Pathway: Gene Identification via Genome-wide siRNA Screen.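 Also: robust z of the log signal after scaling to non-targeting control siRNA wells of the plate.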 To be noted: RAW264.7 macrophages, IL-1a HTRF, actives lie on both sides, screened at 100 nM (by protocol), cells primed 5 h with Pam3CSK4 first. In a few lines: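 IL-1a HTRF of supernatants after 24 hour LipidA transfection of Pam3CSK4-primed (5 hours) RAW264.7 cells, 48h post-siRNA transfection (100 nM). Scores: percent of plate negative-control median, then log-based robust z-score.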
Turning to CCAAGUCUUUGCCUACGUGTT against Dsn1, the z-score was active: 2.39.

“GGAAAUCAGAACUGUAUCUTT against 2310022B05Rik”: the z-score is inactive: -1.8.

Take GGAAUGGACAAAAUGAUUCTT against Cct4: the z-score is inactive: 1.53.

As for GGAUCAAGAAUUAGAAAAGTT against Abcc9, the z-score is inactive: -0.85.

For GGUGUAAUGUCUUUGCUAATT against Spag6l, the z-score was inactive: 0.49.

Consider GAGUUCUCUCUCACAGCCCTT against Gp1bb, for which the z-score is inactive: -0.409.

GCGAAAGCAGGAUACUCCUTT against Mtmr11: the z-score is inactive: 1.01.

GUGUUCGAACAACAUUGUATT against Map3k7: the z-score is inactive: 0.352.

Consider GGCAAAGCUCCAUCAUCUGTT against Aste1, for which the z-score is inactive: -0.682.

With GCUAUGAAAGAGGGAAGCUTT against Cyp2c54, the z-score is inactive: 0.164.

GGCUAUCUGAUCAAGCCCATT against Pcgf5: the z-score was inactive: 0.111.

As for GGUGAUGUCAAGAGUUUUCTT against Hacd2, the z-score was active: 3.56.

For the sequence CCUACCAUAGCAACACUAUTT against Kcna2, the z-score was active: 3.14.

GCGUGAACGUAUUUGUUACTT against Pcdhgc3: the z-score was inactive: 0.203.

With GCUUGUUUUCCUUAAGGGATT against Cr1l, the z-score was inactive: 0.685.

As for GCCCUUCGGGACUUUAUUGTT against Gusb, the z-score is inactive: 0.763.

As to GGUAUUGGACAAUCAGAUATT against Cit, the z-score is inactive: 0.674.

As for CGAUCUACAUCUGCAUCAUTT against Olfr1212, the z-score is inactive: -1.2.

GCUCGAGAACAGUACCAUUTT against Hlcs: the z-score was inactive: 0.182.

For GGCCUUUCUAUAUAGAGCCTT against Slc38a9, the z-score was inactive: -0.321.

Take GGUUGUGGAAGAAGGACUCTT against Med13l: the z-score was inactive: 0.911.

Consider GGUCUUCAACGAAACCAACTT against Ly6g6c, for which the z-score is inactive: 0.287.

Consider GGAGUUCUGUGAAAUCUUCTT against Camkv, for which the z-score is inactive: 0.554.

Turning to GGGCCAAGAGCUUCUUUGATT against Ahr, the z-score was inactive: -1.46.

In the case of CCUCUCUACAUCCACUACUTT against Pogz, the z-score is active: 3.

Take GAGAAACAACAAUUUGGGATT against Gm20815: the z-score was active: 2.07.

Take GGGUCUUUAUAAGUCUAUGTT against Kbtbd2: the z-score is inactive: 1.16.

For the sequence CCAUGGUCUAGCACAGUGGTT against Cpn2, the z-score is inactive: -0.079.

Regarding “GCAUCCAAUAGGAUUCAUGTT against A930012O16Rik”, the z-score was inactive: 0.286.

In the case of GCUUCUUGAUCCAACUGGATT against Zfyve27, the z-score is inactive: 0.362.

On to GGUCAUGACAUCAUUGGCGTT against Kcng4, for which the z-score is inactive: -0.142.

In the case of CGCAGGACGAUUAUGACGUTT against Pcdhb12, the z-score is inactive: 0.753.

For the sequence GGAUAUGAACCCUACUCUUTT against Tmem255a, the z-score was inactive: -1.77.

As to GGAACUGAAGGGCAAUAUCTT against Kifc5b, the z-score is inactive: 1.99.

GGAAGAAGUACUCCAACUCTT against Eps8l2: the z-score is inactive: 1.7.

As to GCUGAAAUCGAAAACCCGCTT against Atp6v0a1, the z-score was inactive: 0.766.

As to GGAGAUCAGCAGUUCAUUUTT against Csprs, the z-score was inactive: -1.66.

For the sequence GGAAUGGGAUAGAUUUGUUTT against Ung, the z-score was active: 2.51.

For the sequence GGAAUCAGCAAUGGACCCUTT against Parn, the z-score is inactive: -0.818.

Turning to GCAGCUGAGAAAGUCGUUCTT against Ppp1r35, the z-score is inactive: -1.22.

Turning to CCGCCUCUUUGAAGCCCAATT against Pdrg1, the z-score is inactive: -0.271.

In the case of GGAAGAACGACAAGAACAUTT against Tgfbr2, the z-score is inactive: 1.02.

As to GGAGAGCAUCAUAUUUGGCTT against Gnb5, the z-score is inactive: 0.57.

For the sequence GGAAUCAGUGACCUUUUUCTT against Arf2, the z-score is active: -2.05.

For GGAGACAACAGAUUUCCUGTT against Bcl2l12, the z-score was inactive: -0.956.

As for GGCUCUGGAUAAUUACUAUTT against Eif1a, the z-score was inactive: 0.284.

Turning to GGUUUACCUCUAUGCUAUGTT against Upk3a, the z-score was inactive: 1.39.

GCAAUGGUGAGCAUUAAAATT against Ifit1bl2: the z-score was inactive: -1.74.

Turning to CCUAAAACCUUCAAGUCUUTT against Ppme1, the z-score was inactive: -0.344.

With GCAAUUUCGGGUACUCAUATT against Gfus, the z-score was inactive: -0.845.

For UCGUGUGCCUGAUGAUCACTT against Abcc5, the z-score is inactive: -0.889.

For GGUUUGGCAAAGAAACACATT against Itpa, the z-score was inactive: 1.5.

As to CCCAAUUUGAUUAUAGGUUTT against Olfr1243, the z-score is inactive: -0.0212.

Turning to GCCCUUGAUUGACAAGGAATT against Mrps7, the z-score was inactive: 0.148.

For the sequence CGAACAUUUCAUCUGAUGATT against Ntrk2, the z-score is inactive: -1.42.

In the case of GGACCCAUUCUGUGGGUAATT against Ikzf2, the z-score was inactive: -0.896.

On to GCAACACACCAUAUCAGGATT against Tas2r135, for which the z-score was inactive: -0.322.

With GGUAUUUUUGCAUUUGUCCTT against Pip4p2, the z-score was inactive: 1.32.

With CGAGUGAAAGACCAUAUAATT against Zfp866, the z-score is inactive: -1.56.

On to GCAUUAUGGGCUUUUAUGATT against Dnaja1, for which the z-score is inactive: 0.384.

GGUGUAGAAUAGGACAAAUTT against Ntsr2: the z-score was inactive: 0.43.

Turning to GGGCACAAGGUCAUAACUGTT against Piga, the z-score is inactive: -0.0465.

As for “GUCAUCGCUCCCAAGAAGGTT against D8Ertd738e”, the z-score is inactive: 0.477.

Regarding GGUUGCUAAUAGGGAAGAUTT against Uimc1, the z-score is inactive: -0.194.

For GGAUGCAUUUCUGAGCCACTT against Tacc2, the z-score was inactive: -1.62.

Consider GCCGUGGAGGCUAAAAUCCTT against Sepsecs, for which the z-score is inactive: 0.185.

Consider GGUAGAGGUGGAAUGUAGCTT against Qprt, for which the z-score was inactive: 1.36.

GGAUUCCUAAAUUCUGUGATT against Haus3: the z-score is inactive: 1.26.

On to GCAGAUUUGCACUGAAUCATT against Ndrg3, for which the z-score was inactive: 0.131.

With GGCCACCAAGAAAUUCAAATT against Cd22, the z-score is active: 4.16.

As for GGAACAAUACAUCGACACUTT against Grin2c, the z-score is inactive: 0.183.

As for CGAAUGCUGUACUUCAAAATT against Fsip1, the z-score is inactive: 1.49.

For GGAGUUUGCAAAAAAUUCUTT against Olfr294, the z-score was inactive: -0.434.

Turning to CCAAGCUUAGCAAGGAGUATT against Cyp2f2, the z-score was inactive: -1.92.

For GAAAGCGGAGAUACUGGAGTT against Hes7, the z-score was inactive: -0.723.

On to CGUCUAACCACCAUUCGGUTT against Orai2, for which the z-score is inactive: -0.642.

Regarding “GGCACUCCUAAUCCUUUCCTT against 9430077A04Rik”, the z-score is inactive: 0.0426.

With CGACUUUUCUCAUUAUGAGTT against Ythdf1, the z-score was active: -2.58.

In the case of GCUGCGAUAUUUAAUUCAGTT against Slc10a7, the z-score was inactive: 1.47.

As to GGUGAUUGGCUGGAUCUACTT against Ctns, the z-score is inactive: 0.661.

On to GGAGUCUGCUCUCAUUCUUTT against Slc30a1, for which the z-score is inactive: -0.214.

With AUGCACCAUGCCAUUGACCTT against Oxct2a, the z-score is inactive: 0.736.

For “GGCUGACACACUUCUACAUTT against D630003M21Rik”, the z-score was inactive: 0.44.

As for GGCCACAAACAGAAUUAUCTT against Mrpl2, the z-score was inactive: -0.219.

Turning to GGAUGACCUACGAGUGUUATT against Taf5, the z-score is inactive: 0.552.

For GGCUGAUGUAAUCUCUAAATT against Slc9a8, the z-score is inactive: 1.26.

On to GGUCAAUGUAGCUCCCAUGTT against Opa3, for which the z-score was inactive: -0.56.

For the sequence GCUUGAUCCGAUUAGCAGATT against Mcm9, the z-score was inactive: 1.19.

For the sequence GCGUGUGCGUGAUAAGUAUTT against Cep131, the z-score was inactive: 0.862.

As to GGACCUGUUGAUAUUGGCCTT against Atp5j, the z-score was inactive: 0.499.

Consider GGUCCUAAAUGCUCAGAAGTT against Rnf167, for which the z-score was inactive: 0.41.

As for GGCCUCUUCCUGCUUCUUATT against Tmem218, the z-score was inactive: -0.125.

As to UUAGCCGAAAGGGCUUAACTT against Olfr1032, the z-score was inactive: 1.57.

Regarding GAAUGUAUGGUGAUCAAAGTT against Pip, the z-score was inactive: 0.205.

With GCUUGUGUUUUAGAGCCGCTT against Mat1a, the z-score is inactive: 0.653.

Take GGGUUAUACCCAGAAUUUCTT against Fcrla: the z-score was inactive: 0.442.

As for GGCCUUUCUUUUGUAAUUUTT against Zfp57, the z-score was inactive: -0.155.

For CCCUACGAAGUACCAACUUTT against Il18bp, the z-score was inactive: -1.72.

As to GGAAAAUUAAUAGCACAAGTT against Acot13, the z-score was inactive: 0.0633.

For CCAAGGUAAAUUACUAUGATT against Ninl, the z-score is inactive: -0.572.

For GAAUCGGAGCAGUGUGUCATT against Tff2, the z-score is inactive: -0.556.

Take GGAGGUACCACAAAAGGCATT against Kif2c: the z-score was inactive: 0.0217.

On to GGAGCUAAACCAAUGGCAATT against Txndc15, for which the z-score is inactive: 0.479.

With GGAUUCGGAAAUAUUGCCATT against Fgb, the z-score is inactive: -0.672.

On to GGUGAAACUGAGAAUCAUGTT against Mcpt4, for which the z-score is inactive: -0.251.

For the sequence CGAGGUAAACAGUUUCGUUTT against BC051142, the z-score was inactive: -0.0606.

Consider GCUCUGUCUUCAGGUCAUUTT against Olfr1040, for which the z-score is inactive: -0.0484.
